Drawing on PMC7819943, “Rice protein-binding microarrays: a tool to detect cis-acting elements near promoter regions in rice”, this text covers binding signal for 42 sequences.

Chains of the proteins cited; added tags and fusions are not shown.
UniProt Q0JBA9, entry or part of it: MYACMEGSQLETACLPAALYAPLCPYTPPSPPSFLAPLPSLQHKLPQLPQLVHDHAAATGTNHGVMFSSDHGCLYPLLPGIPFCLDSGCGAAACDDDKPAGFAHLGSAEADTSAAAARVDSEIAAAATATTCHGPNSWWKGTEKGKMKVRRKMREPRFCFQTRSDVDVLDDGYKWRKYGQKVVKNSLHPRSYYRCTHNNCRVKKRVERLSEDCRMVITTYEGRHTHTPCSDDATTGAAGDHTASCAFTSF

This is one part of the list.

In the assay the target is OsWRKY34 (Oryza sativa, UniProt Q0JBA9 1-250). Kind of assay: protein-binding microarray (RPBM); PBS, 2% BSA, 51.3 ng/ul salmon testes DNA, 50 uM zinc acetate, 200 nM TF, 25 C, 1 h; high values mean tight binding. Conditions: protein: recombinant; tags: N-terminal polyhistidine and DsRed monomer fusion (pET32a); label: CyDye5-dUTP incorporated in the synthesized complementary strand; 3' TTTTT single-stranded linker to array surface; dsDNA, one strand shown. In a few lines:
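The binding signal is fluorescence intensity per array feature (arbitrary units). Readings came from an Axon 4000B scanner after a washed, 2% BSA-blocked, double-stranded custom Agilent array had been incubated for 1 h at 25 °C with 200 nM protein and 50 µM zinc acetate. The protein was a Ni–NTA-purified transcription factor fused N-terminally to polyhistidine and DsRed, expressed in E. coli BL21-CodonPlus.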
Consider “TTGGAGTTGGTATGGGAAATTTGTGTGGGCTATAGTTTGTCGGAGTCACCTAGTGCAG”, for which the binding signal is 11300 fluorescence intensity (a.u.).

For “TACTCTCTGACTCAGCAAACAATCACATAATCCTCTAAGACGGAGTCACCTAGTGCAG”, the binding signal is 9040 fluorescence intensity (a.u.).

With “TATATCATTTGTATTTCATTCCTGCTTTATACCATTCTAACGGAGTCACCTAGTGCAG”, the binding signal was 10400 fluorescence intensity (a.u.).

For the sequence “GAGAAGTGATCTTTGCTGGGTAGGGGCACCGGAGCTCCGTCGGAGTCACCTAGTGCAG”, the binding signal is 11900 fluorescence intensity (a.u.).

On to “ACCACCAGTCCACCACCAAAATTAGCATGGAAGCAGCTTCCGGAGTCACCTAGTGCAG”, for which the binding signal was 9460 fluorescence intensity (a.u.).

In the case of “TGTGTGTCACGTTTGGCTATTTGGCTGGTCGTACGATGCCCGGAGTCACCTAGTGCAG”, the binding signal is 8690 fluorescence intensity (a.u.).

Consider “GCCCGGCCCATGGCACGCCTTTTTGGCCCGGCCCAAGCACCGGAGTCACCTAGTGCAG”, for which the binding signal was 8050 fluorescence intensity (a.u.).

Turning to “ACTTTTTTTTCCCTCTTTGACTCTTTAACTTACCTGCTCCCGGAGTCACCTAGTGCAG”, the binding signal is 8950 fluorescence intensity (a.u.).

Take “TTTCTTTTGTTGCGACTTGTTTTATACCACATCCATCCCACGGAGTCACCTAGTGCAG”: the binding signal is 10400 fluorescence intensity (a.u.).

For the sequence “AATCGGATATATAAACTTTTGTCTTATAAACTTTGGTTCTCGGAGTCACCTAGTGCAG”, the binding signal is 8140 fluorescence intensity (a.u.).

With “ATCCCACCGTGGCGCCACCCTATTGGGCCCTACTCTTCAGCGGAGTCACCTAGTGCAG”, the binding signal was 8780 fluorescence intensity (a.u.).

“CTATACATTTACGTCGTCTAGCTATATTACACGTTACTTTCGGAGTCACCTAGTGCAG”: the binding signal is 14600 fluorescence intensity (a.u.).

“CTGCTGGCCCCACCCGTCATATACACCCTCATCCAGCCGGCGGAGTCACCTAGTGCAG”: the binding signal was 8030 fluorescence intensity (a.u.).

For the sequence “CTTACCATTACAATAACTGATATGTGAGTCCTATTTTCTTCGGAGTCACCTAGTGCAG”, the binding signal is 8360 fluorescence intensity (a.u.).

On to “ATCCTATTTTCCTTACTCCTCTAAACTCTATTCCCCTTCTCGGAGTCACCTAGTGCAG”, for which the binding signal is 8580 fluorescence intensity (a.u.).

Turning to “GCCGTCCATTAAGCAATACAGTACATATCTCGTATTCTCACGGAGTCACCTAGTGCAG”, the binding signal was 10800 fluorescence intensity (a.u.).

“CGGTCTGGCTGATTGTGTTGTTGTAACAAAAACTTTTTTTCGGAGTCACCTAGTGCAG”: the binding signal is 9230 fluorescence intensity (a.u.).

For “GTTTAAATGAGCTTAGGGGTATACATTTCTGATTTTGTGACGGAGTCACCTAGTGCAG”, the binding signal was 11100 fluorescence intensity (a.u.).

As to “CTAAAGCGTTATCCCACACGTGGATCCATCCCCACCGTCCCGGAGTCACCTAGTGCAG”, the binding signal is 8530 fluorescence intensity (a.u.).

As to “ACGTTCCATTACTCATATTCATATAAATATTAATGAATACCGGAGTCACCTAGTGCAG”, the binding signal was 8090 fluorescence intensity (a.u.).

For “GTCGATCTCCCTGCTTTTCCCAGTACAAACTGCAACTGTTCGGAGTCACCTAGTGCAG”, the binding signal was 8290 fluorescence intensity (a.u.).

Turning to “TCCGGAGGAGGAGGAGGAGTTGGGGTGGAGGGGAGCTATGCGGAGTCACCTAGTGCAG”, the binding signal was 9340 fluorescence intensity (a.u.).

As for “GTTTTTTGGCCCCGTTTATTGTTTATCCTTTATTCTAACACGGAGTCACCTAGTGCAG”, the binding signal is 15700 fluorescence intensity (a.u.).

As for “GACCACGCACTTCTGCTGTAATAATCACTAATTCACACAACGGAGTCACCTAGTGCAG”, the binding signal is 10500 fluorescence intensity (a.u.).

Turning to “GTCATTTTCCATCACATCAACCTGTCATACACACACAACTCGGAGTCACCTAGTGCAG”, the binding signal is 9180 fluorescence intensity (a.u.).

Consider “ATTTCACAATCACCTTTTTGGCCATTTTGCACCTTAATTACGGAGTCACCTAGTGCAG”, for which the binding signal was 10100 fluorescence intensity (a.u.).

In the case of “AAAATTCCTAAAACTACTTGCTACTATTCTCTCTCCAACTCGGAGTCACCTAGTGCAG”, the binding signal was 8240 fluorescence intensity (a.u.).

As to “TTGGAACTACTCCCTCGATCTACTTTTGATAATCATTTTTCGGAGTCACCTAGTGCAG”, the binding signal is 8800 fluorescence intensity (a.u.).

Regarding “TTTATTTTTATTCTGAATTTTAATTAATCTCGTATTGGGTCGGAGTCACCTAGTGCAG”, the binding signal was 8380 fluorescence intensity (a.u.).

Turning to “ACTTCTCTTCGGTGTTTTGCTTGCTTCGGATTTCAGAATTCGGAGTCACCTAGTGCAG”, the binding signal was 13500 fluorescence intensity (a.u.).

For “CTCCTCGCGCCACGTCACCCCTCCGGATCCCTTTAAAACCCGGAGTCACCTAGTGCAG”, the binding signal was 9350 fluorescence intensity (a.u.).

For “ATTTCGTCAACATAGATACAATGTCATTTTTTTTTCTTTTCGGAGTCACCTAGTGCAG”, the binding signal was 8690 fluorescence intensity (a.u.).

For “ATTCGCTGCCGGGGACGCCGTCTTCTCCGTCAACTCCGGCCGGAGTCACCTAGTGCAG”, the binding signal is 10400 fluorescence intensity (a.u.).

Take “GGGTTGGTTTGGTTTGGTTGCTTCTTCTCTGCTTCAACGGCGGAGTCACCTAGTGCAG”: the binding signal is 40000 fluorescence intensity (a.u.).

With “AAAGGAATGGCCCAAATAAACAAGTTTTTTCCTAAAATAACGGAGTCACCTAGTGCAG”, the binding signal was 63000 fluorescence intensity (a.u.).

For “AGTTCCTTGCACCTAATGATATGAGTTTATATTTCTGAACCGGAGTCACCTAGTGCAG”, the binding signal is 8080 fluorescence intensity (a.u.).

Turning to “CCTACACTGAAGTTAAGCAGATCTTCCAGGCCTCGTGTTTCGGAGTCACCTAGTGCAG”, the binding signal was 8780 fluorescence intensity (a.u.).

With “GCCTCCAGGTATTTATCATAGCACTGCAGTATTTTTTTTACGGAGTCACCTAGTGCAG”, the binding signal was 9010 fluorescence intensity (a.u.).

With “GTAGGGTGTTTAATTTTTCTTTTTGAAATTTATTTATTTACGGAGTCACCTAGTGCAG”, the binding signal is 12900 fluorescence intensity (a.u.).

Take “AGCTGACCGCGCGACCGCCACTACCTCCTCGTCATTTCCCCGGAGTCACCTAGTGCAG”: the binding signal is 8680 fluorescence intensity (a.u.).

Turning to “TCCCACCGTGGAAGCCTCGCCGCCACACTGTCCCAGCCTTCGGAGTCACCTAGTGCAG”, the binding signal was 8800 fluorescence intensity (a.u.).

On to “TGAACGCATCAACACATATATGCACTTCATCCTACTTGTTCGGAGTCACCTAGTGCAG”, for which the binding signal is 8470 fluorescence intensity (a.u.).
